Experimental data reported in PubChem BioAssay AID504467 (National Center for Advancing Translational Sciences (NCATS), 2011).
Out of some 330,000 compounds screened, about 7,700 (2.3%) were called active. The inconclusive results got no clear call from the source; some entries with a clear call stand among them for comparison. Calls follow the shape of the dose curve; as a rule, active = well fitted inhibition curve with a large enough effect; inconclusive = small, poorly fitted or top-dose-only effect, or effect the other way; inactive = flat fitted curve, though single readings scatter. A potency beside an inconclusive call is a rough fit, not a confirmed value.
Potency is read from the fitted curve at half-maximal effect.

Experiment: qHTS screen for small molecules that inhibit ELG1-dependent DNA repair in human embryonic kidney (HEK293T) cells expressing luciferase-tagged ELG1; also: nearly all actives have a fitted effect of over 55% in size
Conditions: HEK293T ELG1-luciferase reporter, luminescence, 16 h, DNA damage induced by 5-fluorouridine; series mostly up to 46.1 µM
In short: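 DMSO vehicle served as the neutral condition. Each well held 2,000 cells given 5-fluorouridine plus compound; after 16 hr at 37 °C/5% CO2, ONE-Glo was added and luciferase measured 30 min later.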
For `CCOCCCNC(=S)N1CCC(C(=O)c2ccc3c(c2)OCCO3)CC1`, the Potency was inconclusive: 23.1 µM [inhibitor, single point].
For `Cc1cc(O)cc(O)c1-c1onc(C(F)(F)F)c1-c1cscn1`, the Potency was inconclusive: 29.1 µM [inhibitor, single point].
For `O=C(Cc1coc2ccc3ccccc3c12)N1CCN(c2ncccn2)CC1`, the Potency was inconclusive: 16.4 µM [inhibitor, partial curve].
In the case of `O=C(CN(Cc1ccc(Cl)c(Cl)c1)S(=O)(=O)c1ccccc1)N/N=C\c1ccc2c(c1)OCO2`, the Potency was inconclusive: 29.1 µM [inhibitor, single point].
In the case of `CCCN1CCN(CCCNC(=O)c2cc3c(s2)-c2ccccc2OC3)CC1`, the Potency was inconclusive: 20.6 µM [activator, partial curve, poor fit].
For `COc1ccc2nc(NC(=O)CN(C)S(=O)(=O)c3cccs3)sc2c1`, the Potency was inconclusive: 29.1 µM [inhibitor, single point].
For `Cc1ccc(-c2nn(-c3ccccc3)cc2C(=O)N2CCN(c3ccccn3)CC2)cc1`, the Potency was inconclusive: 29.1 µM [inhibitor, single point].
With `Cc1cc(C(=O)O)cc(S(=O)(=O)Nc2c(C)nn(C)c2C)c1C` the Potency was “inactive”.
For `COc1ccc2cc3cc(C(=O)NCCN4CCN(c5ccccc5F)CC4)oc3nc2c1`, the Potency was inconclusive: 29.1 µM [inhibitor, single point].
In the case of `Cc1ccc(-c2nnc(SCC(=O)N(CC(C)C)c3c(N)n(Cc4ccccc4)c(=O)[nH]c3=O)n2N)cc1`, the Potency was “inactive”.
In the case of `c1ccc(Nc2cccc(Nc3ccccc3)c2)cc1`, the Potency was inconclusive: 20.6 µM [activator, single point].
With `CCOC(=O)/C(=C/C=C1\Sc2ccccc2N1CC)C(C)=O` the Potency was inconclusive: 25.9 µM [inhibitor, single point].
In the case of `CCN(C(=O)CSc1nc(-c2ccccc2)c(-c2ccccc2)[nH]1)C1CCS(=O)(=O)C1` (stereo not drawn), the Potency was inconclusive: 7.31 µM [inhibitor, partial curve, poor fit].
For `CCOc1c(Cl)cc(/C=C/C(=O)N(CC)CC(=O)Nc2ccc(NC(C)=O)cc2)cc1OC`, the Potency was active: 14.6 µM.
With `COC(=O)c1ccc(CN2CCCC(C(=O)c3cc(F)ccc3OC)C2)cc1` (stereo not drawn) the Potency was “inactive”.
In the case of `COc1cccc(C(=O)CSc2nnc(-c3cc(OC)c(OC)c(OC)c3)o2)c1`, the Potency was active: 20.6 µM.
For `Cc1cc(=O)n(C)c(=O)n1CCCCCOc1cccc([N+](=O)[O-])c1`, the Potency was inconclusive: 25.9 µM [inhibitor, single point].
In the case of `Cc1cc(NC(=O)c2c(F)cccc2F)n(-c2nc3ccccc3[nH]2)n1`, the Potency was inconclusive: 18.4 µM [inhibitor, single point].
